Measured values taken from the supplement of paper PMC11732987, “Enantioselective OTUD7B fragment discovery through chemoproteomics screening and high-throughput optimisation” (Communications Chemistry, 2025).
The list shows a part of the results. The data scatter; read single values as rough.

Sequences of proteins named here, by UniProt entry; tags and fusion partners are left off. A change or cut given only in a name is not applied to a line headed by its entry. Residues count along the entry.
UniProt Q7Z2Z2: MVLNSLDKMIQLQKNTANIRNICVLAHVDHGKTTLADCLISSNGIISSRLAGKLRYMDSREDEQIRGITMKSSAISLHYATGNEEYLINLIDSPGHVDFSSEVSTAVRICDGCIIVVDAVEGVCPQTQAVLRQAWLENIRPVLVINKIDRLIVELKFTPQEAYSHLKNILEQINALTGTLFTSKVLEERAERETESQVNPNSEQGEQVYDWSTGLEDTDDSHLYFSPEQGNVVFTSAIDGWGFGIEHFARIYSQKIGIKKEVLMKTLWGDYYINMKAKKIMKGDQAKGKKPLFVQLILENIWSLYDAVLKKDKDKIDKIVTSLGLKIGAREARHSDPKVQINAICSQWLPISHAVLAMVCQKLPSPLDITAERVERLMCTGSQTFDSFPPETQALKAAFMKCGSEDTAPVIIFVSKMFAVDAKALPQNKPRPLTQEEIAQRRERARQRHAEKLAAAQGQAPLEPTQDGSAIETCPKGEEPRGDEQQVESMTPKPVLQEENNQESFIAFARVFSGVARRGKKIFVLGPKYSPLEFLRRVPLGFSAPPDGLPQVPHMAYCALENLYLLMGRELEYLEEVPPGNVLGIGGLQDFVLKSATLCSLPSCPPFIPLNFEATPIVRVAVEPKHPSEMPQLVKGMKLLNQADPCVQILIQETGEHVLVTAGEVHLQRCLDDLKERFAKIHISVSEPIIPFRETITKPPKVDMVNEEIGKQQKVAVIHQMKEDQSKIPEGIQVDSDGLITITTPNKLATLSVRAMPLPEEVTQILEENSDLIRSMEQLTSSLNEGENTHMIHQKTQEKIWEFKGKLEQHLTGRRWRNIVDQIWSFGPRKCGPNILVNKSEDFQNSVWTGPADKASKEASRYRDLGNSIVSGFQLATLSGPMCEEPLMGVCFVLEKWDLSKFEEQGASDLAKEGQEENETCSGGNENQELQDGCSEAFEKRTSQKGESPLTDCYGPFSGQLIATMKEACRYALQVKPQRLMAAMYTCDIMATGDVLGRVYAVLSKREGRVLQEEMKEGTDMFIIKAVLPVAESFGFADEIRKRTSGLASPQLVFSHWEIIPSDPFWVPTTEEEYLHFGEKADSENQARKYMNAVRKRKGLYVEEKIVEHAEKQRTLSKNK
UniProt P15924: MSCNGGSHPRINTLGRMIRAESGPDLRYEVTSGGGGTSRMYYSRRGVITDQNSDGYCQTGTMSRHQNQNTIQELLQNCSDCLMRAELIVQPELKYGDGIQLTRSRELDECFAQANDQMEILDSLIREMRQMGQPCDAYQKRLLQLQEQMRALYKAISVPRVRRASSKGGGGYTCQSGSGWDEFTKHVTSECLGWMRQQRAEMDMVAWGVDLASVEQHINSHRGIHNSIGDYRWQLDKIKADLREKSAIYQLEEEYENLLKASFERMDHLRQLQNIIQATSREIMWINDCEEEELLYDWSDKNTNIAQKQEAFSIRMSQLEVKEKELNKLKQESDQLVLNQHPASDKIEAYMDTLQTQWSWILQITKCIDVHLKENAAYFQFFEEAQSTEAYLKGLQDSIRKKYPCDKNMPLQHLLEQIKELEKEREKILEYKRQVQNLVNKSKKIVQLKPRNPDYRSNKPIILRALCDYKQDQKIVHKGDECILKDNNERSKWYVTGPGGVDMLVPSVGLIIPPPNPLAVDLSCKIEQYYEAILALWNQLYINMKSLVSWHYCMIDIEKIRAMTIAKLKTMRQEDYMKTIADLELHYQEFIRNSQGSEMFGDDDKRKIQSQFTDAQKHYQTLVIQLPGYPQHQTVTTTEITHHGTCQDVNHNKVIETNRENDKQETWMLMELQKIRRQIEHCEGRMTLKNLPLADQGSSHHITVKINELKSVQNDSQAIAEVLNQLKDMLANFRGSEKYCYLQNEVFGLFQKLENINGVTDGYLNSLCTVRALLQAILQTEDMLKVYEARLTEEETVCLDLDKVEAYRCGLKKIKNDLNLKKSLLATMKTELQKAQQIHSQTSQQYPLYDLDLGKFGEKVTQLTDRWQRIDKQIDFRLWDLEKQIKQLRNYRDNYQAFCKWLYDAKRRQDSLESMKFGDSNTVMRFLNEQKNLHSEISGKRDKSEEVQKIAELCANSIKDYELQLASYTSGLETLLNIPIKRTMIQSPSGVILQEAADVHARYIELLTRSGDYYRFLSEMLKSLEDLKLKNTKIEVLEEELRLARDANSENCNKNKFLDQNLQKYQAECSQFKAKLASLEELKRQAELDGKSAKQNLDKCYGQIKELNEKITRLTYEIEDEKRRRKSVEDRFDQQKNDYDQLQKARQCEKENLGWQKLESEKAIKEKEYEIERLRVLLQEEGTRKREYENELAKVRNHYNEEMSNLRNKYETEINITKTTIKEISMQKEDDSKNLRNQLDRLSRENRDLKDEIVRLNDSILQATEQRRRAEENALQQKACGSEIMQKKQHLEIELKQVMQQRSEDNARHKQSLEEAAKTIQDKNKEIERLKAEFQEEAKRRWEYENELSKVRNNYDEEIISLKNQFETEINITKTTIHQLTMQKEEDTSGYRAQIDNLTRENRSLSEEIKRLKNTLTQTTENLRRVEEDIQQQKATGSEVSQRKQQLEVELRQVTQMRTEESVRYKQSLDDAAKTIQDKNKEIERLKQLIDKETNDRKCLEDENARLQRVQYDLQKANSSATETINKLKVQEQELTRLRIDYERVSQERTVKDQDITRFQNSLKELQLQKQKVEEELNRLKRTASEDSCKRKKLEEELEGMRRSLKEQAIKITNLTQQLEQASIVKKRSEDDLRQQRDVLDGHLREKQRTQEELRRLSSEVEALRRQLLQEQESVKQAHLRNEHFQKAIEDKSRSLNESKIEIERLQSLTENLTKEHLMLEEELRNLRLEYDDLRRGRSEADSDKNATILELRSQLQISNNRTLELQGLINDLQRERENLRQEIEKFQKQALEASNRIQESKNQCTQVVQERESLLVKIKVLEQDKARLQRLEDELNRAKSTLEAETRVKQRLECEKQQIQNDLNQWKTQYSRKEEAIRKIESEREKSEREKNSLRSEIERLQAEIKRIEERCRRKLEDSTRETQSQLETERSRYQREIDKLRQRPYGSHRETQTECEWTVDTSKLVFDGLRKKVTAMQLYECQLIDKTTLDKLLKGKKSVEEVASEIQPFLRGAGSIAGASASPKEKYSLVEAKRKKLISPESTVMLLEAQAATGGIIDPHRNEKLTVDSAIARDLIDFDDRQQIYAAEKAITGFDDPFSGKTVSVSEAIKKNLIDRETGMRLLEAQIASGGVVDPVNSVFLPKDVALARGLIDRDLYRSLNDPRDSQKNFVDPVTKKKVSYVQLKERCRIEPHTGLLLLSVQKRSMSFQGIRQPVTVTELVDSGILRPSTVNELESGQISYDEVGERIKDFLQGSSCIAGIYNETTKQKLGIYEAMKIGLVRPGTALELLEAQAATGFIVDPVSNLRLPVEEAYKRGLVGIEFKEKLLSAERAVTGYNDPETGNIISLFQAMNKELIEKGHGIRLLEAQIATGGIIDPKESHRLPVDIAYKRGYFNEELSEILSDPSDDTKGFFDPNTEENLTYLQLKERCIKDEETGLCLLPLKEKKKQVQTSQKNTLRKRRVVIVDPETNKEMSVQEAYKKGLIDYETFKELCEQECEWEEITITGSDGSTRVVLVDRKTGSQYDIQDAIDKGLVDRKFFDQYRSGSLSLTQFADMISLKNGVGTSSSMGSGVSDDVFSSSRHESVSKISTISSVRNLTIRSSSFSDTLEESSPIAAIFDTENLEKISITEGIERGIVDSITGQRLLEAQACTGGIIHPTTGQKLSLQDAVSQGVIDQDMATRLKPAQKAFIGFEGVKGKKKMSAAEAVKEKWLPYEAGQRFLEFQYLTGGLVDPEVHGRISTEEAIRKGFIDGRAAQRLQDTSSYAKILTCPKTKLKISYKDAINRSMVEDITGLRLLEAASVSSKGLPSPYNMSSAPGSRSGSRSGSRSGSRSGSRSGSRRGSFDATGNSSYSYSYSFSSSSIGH
UniProt Q9BQ52: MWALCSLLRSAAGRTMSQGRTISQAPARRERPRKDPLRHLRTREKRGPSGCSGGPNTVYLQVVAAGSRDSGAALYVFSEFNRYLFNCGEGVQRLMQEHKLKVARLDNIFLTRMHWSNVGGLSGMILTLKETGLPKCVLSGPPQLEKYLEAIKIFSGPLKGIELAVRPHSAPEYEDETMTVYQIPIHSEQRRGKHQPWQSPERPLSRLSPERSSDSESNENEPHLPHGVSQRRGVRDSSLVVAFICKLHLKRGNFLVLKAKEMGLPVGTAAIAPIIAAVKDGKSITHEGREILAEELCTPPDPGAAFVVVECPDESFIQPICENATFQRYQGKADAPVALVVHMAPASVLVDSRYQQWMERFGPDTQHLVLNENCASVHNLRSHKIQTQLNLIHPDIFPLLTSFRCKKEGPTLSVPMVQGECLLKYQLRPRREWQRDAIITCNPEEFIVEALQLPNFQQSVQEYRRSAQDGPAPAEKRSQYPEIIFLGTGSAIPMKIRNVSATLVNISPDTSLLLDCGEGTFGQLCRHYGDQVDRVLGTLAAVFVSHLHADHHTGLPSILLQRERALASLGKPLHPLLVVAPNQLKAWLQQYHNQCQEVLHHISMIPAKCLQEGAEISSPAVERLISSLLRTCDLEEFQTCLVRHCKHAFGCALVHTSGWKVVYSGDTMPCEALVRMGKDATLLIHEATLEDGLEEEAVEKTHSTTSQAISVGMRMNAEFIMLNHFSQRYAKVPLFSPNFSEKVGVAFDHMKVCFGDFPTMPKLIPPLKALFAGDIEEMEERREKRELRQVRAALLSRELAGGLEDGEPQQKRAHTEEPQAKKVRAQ
UniProt P63167, 10-31: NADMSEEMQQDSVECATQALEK
UniProt Q96F86: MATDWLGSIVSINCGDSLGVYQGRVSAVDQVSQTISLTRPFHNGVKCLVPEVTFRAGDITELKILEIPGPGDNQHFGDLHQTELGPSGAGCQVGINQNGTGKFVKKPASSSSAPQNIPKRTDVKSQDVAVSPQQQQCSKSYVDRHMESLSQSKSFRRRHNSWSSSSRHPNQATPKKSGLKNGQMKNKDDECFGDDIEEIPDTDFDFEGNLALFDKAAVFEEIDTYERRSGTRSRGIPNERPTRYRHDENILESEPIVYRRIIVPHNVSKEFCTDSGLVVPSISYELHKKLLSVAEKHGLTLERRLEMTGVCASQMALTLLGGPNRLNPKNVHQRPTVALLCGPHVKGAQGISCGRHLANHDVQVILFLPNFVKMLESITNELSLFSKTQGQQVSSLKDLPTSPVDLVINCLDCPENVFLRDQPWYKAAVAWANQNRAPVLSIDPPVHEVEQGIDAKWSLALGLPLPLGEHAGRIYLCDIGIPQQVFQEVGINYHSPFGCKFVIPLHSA
UniProt O75521, 71-90: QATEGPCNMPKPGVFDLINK
UniProt Q15717: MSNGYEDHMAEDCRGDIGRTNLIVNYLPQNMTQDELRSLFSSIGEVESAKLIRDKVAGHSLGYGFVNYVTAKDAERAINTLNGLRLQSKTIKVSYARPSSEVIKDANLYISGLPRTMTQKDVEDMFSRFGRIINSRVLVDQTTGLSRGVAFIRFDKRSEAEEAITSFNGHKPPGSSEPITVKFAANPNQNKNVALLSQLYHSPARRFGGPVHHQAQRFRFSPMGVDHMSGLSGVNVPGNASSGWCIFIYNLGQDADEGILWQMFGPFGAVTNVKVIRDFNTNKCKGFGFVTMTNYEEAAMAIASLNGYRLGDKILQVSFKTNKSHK
UniProt Q9UBQ5, 177-199: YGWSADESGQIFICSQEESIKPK
UniProt Q14156: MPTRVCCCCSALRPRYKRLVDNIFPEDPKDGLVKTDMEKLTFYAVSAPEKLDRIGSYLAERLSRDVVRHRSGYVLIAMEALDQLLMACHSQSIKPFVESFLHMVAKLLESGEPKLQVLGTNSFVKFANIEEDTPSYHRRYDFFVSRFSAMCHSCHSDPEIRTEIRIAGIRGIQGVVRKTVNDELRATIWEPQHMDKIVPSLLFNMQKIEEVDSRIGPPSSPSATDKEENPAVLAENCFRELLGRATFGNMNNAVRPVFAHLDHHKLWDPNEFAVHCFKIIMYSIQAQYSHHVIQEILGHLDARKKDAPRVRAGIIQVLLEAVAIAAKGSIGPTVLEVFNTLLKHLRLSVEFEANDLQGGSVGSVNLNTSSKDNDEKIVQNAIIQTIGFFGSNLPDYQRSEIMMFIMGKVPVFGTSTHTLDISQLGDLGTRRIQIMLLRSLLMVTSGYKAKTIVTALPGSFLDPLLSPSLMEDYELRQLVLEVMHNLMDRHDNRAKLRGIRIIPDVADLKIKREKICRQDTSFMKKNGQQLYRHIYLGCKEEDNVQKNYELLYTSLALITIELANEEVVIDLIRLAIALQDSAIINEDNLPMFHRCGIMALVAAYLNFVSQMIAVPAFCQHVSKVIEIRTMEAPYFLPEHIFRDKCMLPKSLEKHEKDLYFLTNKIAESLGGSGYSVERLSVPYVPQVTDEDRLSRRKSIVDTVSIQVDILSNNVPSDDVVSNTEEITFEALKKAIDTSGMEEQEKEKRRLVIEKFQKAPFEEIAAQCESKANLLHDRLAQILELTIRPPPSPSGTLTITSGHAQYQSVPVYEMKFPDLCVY

compound: ClCC(=O)N[C@H]1CCCc2ccccc12; experiment: log2 mean competition ratio of IA-DTB cysteine labelling (DMSO/compound) (log2 ratio); higher = stronger cysteine engagement by compound; settings: 200 µM; treatment time: 4 h; cell line lysate: HEK293T
Description: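 IA-DTB competitive cysteine chemoproteomics in HEK293T RIPA lysate. Lysates were treated with compound 29 or 30 at 50 or 200 µM for 4 h, then IA-DTB (500 µM, 1 h), trypsin-digested, NeutrAvidin-enriched and analysed by diaPASEF. Competition ratio = intensity DMSO / intensity compound (n=4 treated, n=64 DMSO); binding: mean log2 CR ≥ 1 and p ≤ 0.05 plus QC filters. Target is the cysteine site.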

| Target | log2 mean competition ratio |
| --- | --- |
| DTX3L C250 (UniProt Q8TDB6) | -0.043 |
| EGFR C775 (UniProt P00533) | 0.317 |
| ECPAS C243 (UniProt Q5VYK3) | 0.367 |
| DSN1 C65 (UniProt Q9H410) | -0.0911 |
| E2F7 C151 | 0.129 |
| EFL1 C831 (UniProt Q7Z2Z2) | 0.0214 |
| ECT2 C796 (UniProt Q9H8V3) | -0.046 |
| EGLN1 C208 (UniProt Q9GZT9) | 0.33 |
| DSP C57 (UniProt P15924) | 0.000447 |
| DUSP11 C117 | -0.193 |
| EFL1 C402 (UniProt Q7Z2Z2) | 0.105 |
| E2F5 C121 | 0.198 |
| EIF3I C144 | 0.188 |
| DST C6799 (UniProt Q03001) | -0.0366 |
| DUS1L C426 (UniProt Q6P1R4) | -0.122 |
| DYNC2I1 C1047 | 0.353 |
| ELAC2 C609 (UniProt Q9BQ52) | -0.173 |
| DYNLL1 C24 (UniProt P63167) | -0.0256 |
| DSG2 C580 (UniProt Q14126) | 0.272 |

Reprinted at random: 2 entries already listed, in no set order.

| Target | log2 mean competition ratio |
| --- | --- |
| EFL1 C831 (UniProt Q7Z2Z2) | 0.0214 |
| DST C6799 (UniProt Q03001) | -0.0366 |

Next part:

| Target | log2 mean competition ratio |
| --- | --- |
| EDC3 C47 (UniProt Q96F86) | -0.0874 |
| ECI2 C77 (UniProt O75521) | 0.327 |
| ELAVL1 C13 (UniProt Q15717) | 0.149 |
| DST C7524 (UniProt Q03001) | -0.283 |
| EFCAB7 C524 (UniProt A8K855) | 0.00974 |
| DSC3 C814 | 0.237 |
| EIF5B C635 (UniProt O60841) | -0.0786 |
| EFTUD2 C780 (UniProt Q15029) | 0.297 |
| DYNC1LI2 C191 (UniProt O43237) | -0.0652 |
| DYNC1H1 C4438 (UniProt Q14204) | 0.216 |
| DST C2061 (UniProt Q03001) | 0.192 |
| EIF3K C190 (UniProt Q9UBQ5) | -0.382 |
| EEF2 C591 (UniProt P13639) | 0.367 |
| EEFSEC C289 (UniProt P57772) | 0.199 |
| DSG2 C840 (UniProt Q14126) | -0.0429 |
| DSP C1280 (UniProt P15924) | -0.0137 |
| EHBP1 C849 (UniProt Q8NDI1) | -0.0995 |
| EFR3A C538 (UniProt Q14156) | -0.169 |
| DSP C899 (UniProt P15924) | -0.119 |
